Assay results from the supplement of paper PMC10849652.
This is one part of the list.

Chains of the proteins cited; added tags and fusions are not shown. Lines headed by an entry give the natural chain unless they say otherwise; changes in a name come on top.
UniProt Q9GZS1, whole entry, looked up: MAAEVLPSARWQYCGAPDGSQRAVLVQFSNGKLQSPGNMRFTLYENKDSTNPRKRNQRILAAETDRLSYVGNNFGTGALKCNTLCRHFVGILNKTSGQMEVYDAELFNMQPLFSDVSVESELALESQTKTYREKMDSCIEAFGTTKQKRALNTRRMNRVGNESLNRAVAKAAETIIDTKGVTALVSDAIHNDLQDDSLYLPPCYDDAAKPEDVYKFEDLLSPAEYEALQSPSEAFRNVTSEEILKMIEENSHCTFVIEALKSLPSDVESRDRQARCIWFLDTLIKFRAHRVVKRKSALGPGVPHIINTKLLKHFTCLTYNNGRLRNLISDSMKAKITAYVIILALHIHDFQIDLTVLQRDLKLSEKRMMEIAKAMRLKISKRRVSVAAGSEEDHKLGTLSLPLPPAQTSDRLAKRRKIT
UniProt Q15181: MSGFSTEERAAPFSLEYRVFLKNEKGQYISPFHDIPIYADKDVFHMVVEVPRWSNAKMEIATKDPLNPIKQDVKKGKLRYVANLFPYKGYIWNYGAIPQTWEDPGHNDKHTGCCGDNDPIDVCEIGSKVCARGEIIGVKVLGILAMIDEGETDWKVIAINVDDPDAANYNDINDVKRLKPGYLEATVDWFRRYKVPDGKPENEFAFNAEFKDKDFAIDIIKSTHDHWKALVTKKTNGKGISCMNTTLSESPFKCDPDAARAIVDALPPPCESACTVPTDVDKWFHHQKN
UniProt Q9Y244: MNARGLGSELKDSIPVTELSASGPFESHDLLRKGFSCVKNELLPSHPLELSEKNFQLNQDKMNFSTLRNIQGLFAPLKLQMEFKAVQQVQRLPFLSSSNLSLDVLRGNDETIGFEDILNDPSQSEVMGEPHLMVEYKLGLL
UniProt O75439: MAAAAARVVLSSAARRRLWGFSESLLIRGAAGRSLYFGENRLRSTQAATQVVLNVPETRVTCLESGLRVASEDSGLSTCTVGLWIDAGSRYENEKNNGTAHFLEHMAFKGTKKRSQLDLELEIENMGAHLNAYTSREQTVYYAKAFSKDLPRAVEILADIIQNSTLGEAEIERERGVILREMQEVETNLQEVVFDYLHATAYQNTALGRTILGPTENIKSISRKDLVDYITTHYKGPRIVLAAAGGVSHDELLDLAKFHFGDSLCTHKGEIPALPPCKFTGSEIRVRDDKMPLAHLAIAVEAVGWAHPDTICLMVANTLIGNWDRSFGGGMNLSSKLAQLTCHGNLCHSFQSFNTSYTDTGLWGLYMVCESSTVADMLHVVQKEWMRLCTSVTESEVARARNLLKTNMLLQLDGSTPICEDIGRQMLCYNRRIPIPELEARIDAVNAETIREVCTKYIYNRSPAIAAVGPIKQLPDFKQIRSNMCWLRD
UniProt Q8TCS8: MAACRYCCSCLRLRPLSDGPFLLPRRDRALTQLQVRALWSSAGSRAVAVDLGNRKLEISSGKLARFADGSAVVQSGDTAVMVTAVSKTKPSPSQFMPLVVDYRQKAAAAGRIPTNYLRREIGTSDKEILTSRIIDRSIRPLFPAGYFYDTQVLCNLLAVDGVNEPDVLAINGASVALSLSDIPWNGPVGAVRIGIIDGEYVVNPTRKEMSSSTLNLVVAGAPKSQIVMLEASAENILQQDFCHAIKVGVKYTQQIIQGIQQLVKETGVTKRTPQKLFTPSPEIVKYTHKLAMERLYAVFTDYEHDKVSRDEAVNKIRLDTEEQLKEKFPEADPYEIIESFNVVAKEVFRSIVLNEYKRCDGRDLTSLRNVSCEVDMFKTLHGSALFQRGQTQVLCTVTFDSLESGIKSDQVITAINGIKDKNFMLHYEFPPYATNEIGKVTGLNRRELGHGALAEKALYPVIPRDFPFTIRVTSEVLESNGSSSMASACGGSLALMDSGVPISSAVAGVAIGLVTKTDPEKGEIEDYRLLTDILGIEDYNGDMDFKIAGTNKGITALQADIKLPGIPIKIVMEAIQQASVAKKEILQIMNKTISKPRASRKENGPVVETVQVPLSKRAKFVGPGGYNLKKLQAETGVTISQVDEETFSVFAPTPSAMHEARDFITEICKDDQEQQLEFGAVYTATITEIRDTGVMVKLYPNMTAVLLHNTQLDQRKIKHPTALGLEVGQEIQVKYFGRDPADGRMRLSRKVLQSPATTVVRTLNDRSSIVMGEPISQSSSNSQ
UniProt Q8TF01: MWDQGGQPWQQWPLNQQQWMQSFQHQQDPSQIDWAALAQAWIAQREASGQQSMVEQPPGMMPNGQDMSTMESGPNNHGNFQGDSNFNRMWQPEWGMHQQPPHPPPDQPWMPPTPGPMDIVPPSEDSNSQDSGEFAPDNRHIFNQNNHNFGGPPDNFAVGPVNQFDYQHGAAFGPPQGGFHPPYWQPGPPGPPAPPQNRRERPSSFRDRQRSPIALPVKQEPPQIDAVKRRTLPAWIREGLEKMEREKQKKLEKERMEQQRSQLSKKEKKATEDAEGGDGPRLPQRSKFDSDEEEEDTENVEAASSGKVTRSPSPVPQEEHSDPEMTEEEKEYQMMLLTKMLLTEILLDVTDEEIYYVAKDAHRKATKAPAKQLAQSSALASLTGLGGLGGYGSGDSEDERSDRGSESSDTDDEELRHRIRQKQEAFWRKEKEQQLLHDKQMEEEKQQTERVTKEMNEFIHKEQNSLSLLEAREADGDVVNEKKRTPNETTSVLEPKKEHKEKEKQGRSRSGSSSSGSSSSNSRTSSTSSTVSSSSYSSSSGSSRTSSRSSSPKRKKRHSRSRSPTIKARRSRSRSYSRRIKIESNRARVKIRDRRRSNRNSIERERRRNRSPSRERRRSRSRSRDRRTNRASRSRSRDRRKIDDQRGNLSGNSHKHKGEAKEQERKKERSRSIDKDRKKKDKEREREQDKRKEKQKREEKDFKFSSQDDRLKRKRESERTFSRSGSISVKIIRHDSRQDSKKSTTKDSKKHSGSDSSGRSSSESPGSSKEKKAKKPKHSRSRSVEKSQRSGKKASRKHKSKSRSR
UniProt O15162: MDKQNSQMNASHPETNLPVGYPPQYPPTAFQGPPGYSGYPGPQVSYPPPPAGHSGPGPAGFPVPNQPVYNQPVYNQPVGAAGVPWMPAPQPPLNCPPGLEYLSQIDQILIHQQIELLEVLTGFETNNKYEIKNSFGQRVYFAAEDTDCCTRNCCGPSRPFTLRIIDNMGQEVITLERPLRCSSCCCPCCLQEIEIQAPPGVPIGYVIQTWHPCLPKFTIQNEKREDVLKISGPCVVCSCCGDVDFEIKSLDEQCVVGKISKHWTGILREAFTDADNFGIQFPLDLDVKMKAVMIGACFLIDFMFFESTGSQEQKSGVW
UniProt P54278: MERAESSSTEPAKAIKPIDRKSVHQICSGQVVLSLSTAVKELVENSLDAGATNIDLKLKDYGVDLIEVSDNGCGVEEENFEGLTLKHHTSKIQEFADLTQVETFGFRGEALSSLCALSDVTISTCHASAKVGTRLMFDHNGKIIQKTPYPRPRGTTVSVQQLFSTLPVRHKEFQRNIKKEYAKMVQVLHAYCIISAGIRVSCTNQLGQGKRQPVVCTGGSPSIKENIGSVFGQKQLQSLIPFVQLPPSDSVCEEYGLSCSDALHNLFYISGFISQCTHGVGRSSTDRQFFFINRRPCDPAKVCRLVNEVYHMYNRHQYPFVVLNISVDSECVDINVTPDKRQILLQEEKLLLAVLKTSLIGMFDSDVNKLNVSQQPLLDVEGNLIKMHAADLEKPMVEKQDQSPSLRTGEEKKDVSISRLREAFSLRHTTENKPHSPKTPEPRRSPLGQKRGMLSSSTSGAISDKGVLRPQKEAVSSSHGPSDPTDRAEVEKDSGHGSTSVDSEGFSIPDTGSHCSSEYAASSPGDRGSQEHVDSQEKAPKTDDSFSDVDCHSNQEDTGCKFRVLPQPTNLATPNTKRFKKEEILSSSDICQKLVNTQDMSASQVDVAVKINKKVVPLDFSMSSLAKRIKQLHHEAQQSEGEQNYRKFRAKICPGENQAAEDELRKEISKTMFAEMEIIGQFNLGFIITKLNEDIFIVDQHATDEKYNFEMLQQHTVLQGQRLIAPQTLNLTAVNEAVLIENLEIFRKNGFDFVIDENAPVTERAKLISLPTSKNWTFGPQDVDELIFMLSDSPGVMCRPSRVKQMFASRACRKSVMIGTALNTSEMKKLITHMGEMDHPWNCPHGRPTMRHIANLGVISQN
UniProt Q04941: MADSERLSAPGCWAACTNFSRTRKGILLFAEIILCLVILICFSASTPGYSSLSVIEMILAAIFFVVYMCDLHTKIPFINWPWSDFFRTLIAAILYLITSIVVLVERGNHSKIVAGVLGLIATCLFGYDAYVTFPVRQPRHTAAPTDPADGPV
UniProt Q8WZA1: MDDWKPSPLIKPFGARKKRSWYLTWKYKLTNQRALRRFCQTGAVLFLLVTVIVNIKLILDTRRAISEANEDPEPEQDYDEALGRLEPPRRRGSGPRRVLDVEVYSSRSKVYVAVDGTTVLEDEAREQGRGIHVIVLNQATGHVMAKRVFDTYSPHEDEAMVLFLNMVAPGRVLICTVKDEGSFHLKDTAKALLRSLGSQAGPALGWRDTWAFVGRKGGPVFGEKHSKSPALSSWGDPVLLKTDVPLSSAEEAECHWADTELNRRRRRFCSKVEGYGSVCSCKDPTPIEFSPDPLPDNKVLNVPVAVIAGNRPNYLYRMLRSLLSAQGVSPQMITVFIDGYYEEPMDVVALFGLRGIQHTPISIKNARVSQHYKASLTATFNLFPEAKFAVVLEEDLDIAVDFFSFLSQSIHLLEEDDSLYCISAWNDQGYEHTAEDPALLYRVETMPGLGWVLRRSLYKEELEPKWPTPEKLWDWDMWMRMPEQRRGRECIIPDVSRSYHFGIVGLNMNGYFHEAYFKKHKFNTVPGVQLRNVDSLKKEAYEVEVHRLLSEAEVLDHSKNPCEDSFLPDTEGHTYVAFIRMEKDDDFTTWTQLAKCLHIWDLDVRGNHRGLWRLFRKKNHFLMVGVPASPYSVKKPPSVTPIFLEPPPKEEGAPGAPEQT
UniProt Q9H9Y6, whole entry, looked up: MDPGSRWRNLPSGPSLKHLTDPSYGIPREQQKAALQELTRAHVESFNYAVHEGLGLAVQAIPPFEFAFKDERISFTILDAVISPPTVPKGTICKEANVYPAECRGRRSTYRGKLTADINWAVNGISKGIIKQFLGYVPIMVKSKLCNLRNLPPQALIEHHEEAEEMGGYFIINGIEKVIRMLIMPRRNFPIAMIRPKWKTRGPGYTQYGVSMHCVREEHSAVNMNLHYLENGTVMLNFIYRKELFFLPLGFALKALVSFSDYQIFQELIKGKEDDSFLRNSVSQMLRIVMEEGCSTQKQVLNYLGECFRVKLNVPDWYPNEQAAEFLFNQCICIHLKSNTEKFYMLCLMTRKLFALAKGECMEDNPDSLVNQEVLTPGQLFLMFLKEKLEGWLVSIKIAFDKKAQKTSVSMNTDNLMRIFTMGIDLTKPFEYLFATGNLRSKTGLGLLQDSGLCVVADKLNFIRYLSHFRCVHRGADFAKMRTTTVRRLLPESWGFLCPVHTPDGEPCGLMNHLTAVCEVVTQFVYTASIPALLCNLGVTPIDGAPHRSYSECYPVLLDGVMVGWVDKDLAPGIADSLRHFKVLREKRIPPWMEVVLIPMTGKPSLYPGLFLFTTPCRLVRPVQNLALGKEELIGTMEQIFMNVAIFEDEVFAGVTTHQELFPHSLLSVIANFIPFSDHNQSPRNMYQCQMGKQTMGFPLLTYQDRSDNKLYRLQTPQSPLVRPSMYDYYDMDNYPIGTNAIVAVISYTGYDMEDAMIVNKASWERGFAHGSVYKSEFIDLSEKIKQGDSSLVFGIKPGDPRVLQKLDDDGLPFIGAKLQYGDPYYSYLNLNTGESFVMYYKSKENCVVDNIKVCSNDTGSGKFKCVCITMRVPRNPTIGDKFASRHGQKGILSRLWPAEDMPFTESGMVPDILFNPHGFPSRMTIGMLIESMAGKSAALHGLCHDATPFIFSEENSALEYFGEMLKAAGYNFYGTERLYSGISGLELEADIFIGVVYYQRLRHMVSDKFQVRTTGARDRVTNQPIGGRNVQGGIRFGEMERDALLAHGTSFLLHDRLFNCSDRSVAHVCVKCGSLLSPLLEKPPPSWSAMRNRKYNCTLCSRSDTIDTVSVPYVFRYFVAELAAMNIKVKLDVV

Legend:
Experiment in all cases: log2 fold change, soluble protein after heating vs DMSO (PISA); higher = thermal stabilisation; K562 lysate, 10 uM; active = over 0.2 and 3.5 SD of the protein, either way, in both replicates (recomputed)
[1] = compound: Cc1cn(-c2cc(NC(=O)c3ccc(C)c(Nc4nccc(-c5cccnc5)n4)c3)cc(C(F)(F)F)c2)cn1 [nilotinib]
Procedure, shortened: (§1)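 A 30 min treatment with 10 μM compound was applied to crude K562 extract at 1 mg/mL protein in PBS pH 7.4 with 1 mM MgCl2. Heating for 3 min spanned 48°C-58°C, after which aliquots were pooled, adjusted to 0.5% NP-40 at 4°C and spun at 21,000xg for 90 min. TMTpro 16plex LC-MS/MS of the supernatant, with channel sums equalised, gave values recorded as log-two fold change in thermal stability against solvent controls, from duplicates.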

[2] = compound: Cc1nc(Nc2n[nH]c3c2CN(C(=O)N[C@H](CN(C)C)c2ccccc2)C3(C)C)c2sccc2n1
Procedure, shortened: as §1

[3] = compound: Cc1nc(Nc2ncc(C(=O)Nc3c(C)cccc3Cl)s2)cc(N2CCN(CCO)CC2)n1 [dasatinib]
Procedure, shortened: as §1

[4] = compound: Cc1ncc(-c2ccnc(Nc3ccc(S(C)(=O)=O)cc3)n2)n1C(C)C
Procedure, shortened: as §1

[5] = compound: Cn1cc(-c2ccc3c(c2)CCN3C(=O)Cc2cccc(C(F)(F)F)c2)c2c(N)ncnc21
Procedure, shortened: as §1

[6] = compound: Cn1cc(CNCC2CCN(c3ncc(C(=O)NO)cn3)CC2)c2ccccc21 [quisinostat]
Procedure, shortened: as §1

[7] = compound: Cn1cncc1[C@@](N)(c1ccc(Cl)cc1)c1ccc2c(c1)c(-c1cccc(Cl)c1)cc(=O)n2C [tipifarnib]
Procedure, shortened: as §1

[8] = compound: NC(=O)Nc1cc(-c2cccc(F)c2)sc1C(=O)N[C@H]1CCCNC1
Procedure, shortened: as §1

[9] = compound: NC(=O)c1cnc(N[C@@H]2CCCC[C@@H]2N)nc1Nc1cccc(-n2nccn2)c1
Procedure, shortened: as §1

[10] = compound: NC1(c2ccc(-c3nc4ccn5c(=O)[nH]nc5c4cc3-c3ccccc3)cc2)CCC1
Procedure, shortened: as §1

[11] = compound: NCC(=O)Nc1ccc(-n2nc(C(F)(F)F)cc2-c2ccc3c(ccc4ccccc43)c2)cc1
Procedure, shortened: as §1

[12] = compound: O=C(CCCCCCC(=O)Nc1ccccc1)NO [vorinostat]
Procedure, shortened: as §1

[13] = compound: O=C(O)c1ccc2c(c1)nc(Nc1cccc(Cl)c1)c1ccncc12 [silmitasertib]
Procedure, shortened: as §1

[14] = compound: O=C1NC(=O)C(c2cnc3ccccn23)=C1c1cn2c3c(cc(F)cc13)CN(C(=O)N1CCCCC1)CC2
Procedure, shortened: as §1

[15] = compound: c1cn2cc(-c3ccc4cn[nH]c4c3)nc(Nc3ccc(N4CCOCC4)cc3)c2n1 [entospletinib]
Procedure, shortened: as §1

Measured: log2 fold change

POLR1E (UniProt Q9GZS1)
inactive: [1] -0.014 | [2] 0.021 | [3] -0.067 | [4] 0 | [5] 0.043 | [6] -0.015 | [7] 0.005 | [8] 0.045 | [9] -0.014 | [10] -0.013 | [11] -0.005 | [12] -0.167 | [13] 0.069 | [14] 0.002 | [15] 0

PNPLA6 (UniProt Q8IY17)
inactive: [1] 0.061 | [2] 0.035 | [3] -0.133 | [4] 0.018 | [5] 0.093 | [6] -0.168 | [7] -0.075 | [8] -0.002 | [9] -0.03 | [10] -0.023 | [11] 0.022 | [12] -0.077 | [13] 0.037 | [14] 0.085 | [15] 0.098

POLR2E (UniProt P19388)
inactive: [1] -0.026 | [2] -0.001 | [3] -0.024 | [4] 0.009 | [5] -0.002 | [6] -0.003 | [7] 0.003 | [8] -0.003 | [9] 0.017 | [10] 0.021 | [11] 0 | [12] -0.101 | [13] 0.022 | [14] 0.059 | [15] -0.016

PPA1 (UniProt Q15181)
inactive: [1] 0.008 | [2] -0.021 | [3] -0.019 | [4] 0.006 | [5] -0.001 | [6] 0.003 | [7] 0.03 | [8] 0.017 | [9] 0.001 | [10] 0.008 | [11] 0.012 | [12] 0.086 | [13] 0 | [14] 0.018 | [15] 0.038

PLEKHO2 (UniProt Q8TD55)
inactive: [1] 0.207 | [2] -0.237 | [3] -0.096 | [4] 0.118 | [5] -0.039 | [6] 0.062 | [7] -0.192 | [8] 0.068 | [9] -0.071 | [11] 0.045 | [12] -0.103 | [13] 0.347 | [14] -0.018 | [15] 0.082
active: [10] 0.873

POMP (UniProt Q9Y244)
inactive: [1] 0.021 | [2] 0.057 | [3] 0.048 | [5] 0 | [6] -0.054 | [7] -0.046 | [8] -0.007 | [9] 0.039 | [10] -0.002 | [11] -0.016 | [12] -0.028 | [13] 0.05 | [14] 0.014 | [15] -0.12
active: [4] 0.301

PMPCB (UniProt O75439)
inactive: [1] -0.01 | [2] 0.038 | [3] 0.011 | [4] 0.024 | [5] 0.022 | [6] 0.025 | [7] 0.079 | [8] 0.034 | [9] 0.012 | [10] 0.022 | [11] 0.01 | [12] 0.115 | [13] -0.002 | [14] -0.033 | [15] -0.042

POR (UniProt P16435)
inactive: [1] -0.03 | [2] -0.011 | [3] 0.033 | [4] -0.017 | [5] 0.003 | [6] 0.026 | [7] -0.019 | [8] -0.002 | [9] -0.007 | [10] -0.032 | [11] -0.013 | [12] 0.107 | [13] -0.013 | [14] 0.008 | [15] -0.027

PNPT1 (UniProt Q8TCS8)
inactive: [1] -0.012 | [2] 0.001 | [3] -0.001 | [4] -0.002 | [5] 0.013 | [6] -0.043 | [7] 0.002 | [8] 0.02 | [9] 0.017 | [10] -0.009 | [11] 0.007 | [12] 0.056 | [13] -0.02 | [14] -0.007 | [15] 0.004

PNISR (UniProt Q8TF01)
inactive: [1] -0.022 | [2] 0.023 | [3] 0.018 | [4] -0.017 | [5] -0.027 | [6] 0.014 | [7] 0.003 | [8] -0.021 | [9] -0.011 | [10] 0.006 | [11] 0.028 | [12] 0.121 | [13] -0.022 | [14] -0.035 | [15] 0.004

POP1 (UniProt Q99575)
inactive: [1] 0.018 | [2] 0.023 | [3] -0.005 | [4] -0.003 | [5] -0.016 | [6] -0.023 | [7] 0.015 | [8] -0.001 | [9] 0.003 | [10] 0.007 | [11] 0.016 | [12] 0.077 | [13] -0.019 | [14] 0.01 | [15] 0.008

POLR2L (UniProt P62875)
inactive: [1] 0.065 | [2] 0.097 | [3] 0.031 | [4] -0.036 | [5] 0.055 | [6] 0.071 | [7] 0 | [8] -0.029 | [9] -0.065 | [10] 0.144 | [11] -0.012 | [12] -0.149 | [13] 0.027 | [14] 0.015 | [15] -0.043

POLR3H (UniProt Q9Y535)
inactive: [1] 0.019 | [2] -0.104 | [3] -0.013 | [4] 0.015 | [5] 0.037 | [6] -0.038 | [7] 0.28 | [8] -0.023 | [9] 0 | [10] 0.189 | [11] 0.003 | [12] -0.205 | [13] -0.129 | [14] 0.063 | [15] -0.031

PLSCR1 (UniProt O15162)
inactive: [1] -0.015 | [2] -0.024 | [3] 0.02 | [4] -0.006 | [5] 0.069 | [6] -0.03 | [7] 0.008 | [8] -0.1 | [9] -0.025 | [10] -0.043 | [11] 0.01 | [12] 0.096 | [13] -0.062 | [14] -0.03 | [15] 0.024

PMS2 (UniProt P54278)
inactive: [1] -0.024 | [2] -0.021 | [3] -0.1 | [4] 0.039 | [5] 0.047 | [6] -0.011 | [7] -0.078 | [8] 0.043 | [9] 0 | [10] -0.006 | [11] 0.064 | [13] 0.026 | [14] 0.027 | [15] 0.001
active: [12] -0.384

PNKP (UniProt Q96T60)
inactive: [1] -0.004 | [2] 0.008 | [3] -0.01 | [4] -0.058 | [5] 0.078 | [6] 0.016 | [7] -0.027 | [8] 0.007 | [9] 0.005 | [10] -0.56 | [11] 0.062 | [12] 0.08 | [13] -0.277 | [14] -0.042 | [15] -0.011

PLP2 (UniProt Q04941)
inactive: [1] -0.129 | [2] 0.046 | [3] -0.096 | [4] 0.109 | [5] -0.004 | [6] 0.075 | [7] 0.106 | [8] -0.035 | [9] -0.001 | [10] -0.021 | [11] -0.027 | [12] 0.28 | [13] -0.198 | [14] -0.028 | [15] -0.112

POMGNT1 isoform 2 (UniProt Q8WZA1)
inactive: [1] -0.088 | [2] 0.021 | [3] -0.206 | [4] -0.201 | [5] -0.008 | [6] -0.08 | [7] 0.006 | [8] 0.035 | [9] -0.014 | [10] 0.022 | [11] 0.042 | [12] -0.009 | [13] -0.056 | [14] 0.009 | [15] -0.008

PPIB (UniProt P23284)
inactive: [1] -0.004 | [2] -0.008 | [3] -0.01 | [4] -0.013 | [5] -0.026 | [6] 0.04 | [7] 0.009 | [8] -0.006 | [9] 0.006 | [10] 0.003 | [11] 0.014 | [12] 0.102 | [13] -0.002 | [14] 0.009 | [15] -0.011

POLR1B isoform 3 (UniProt Q9H9Y6)
inactive: [1] 0.011 | [2] 0.013 | [3] -0.017 | [4] 0.021 | [5] 0.05 | [6] 0.037 | [7] -0.017 | [8] 0.021 | [9] -0.04 | [10] 0.029 | [11] 0.05 | [12] -0.138 | [13] 0.048 | [14] -0.028 | [15] -0.005

PLIN2 (UniProt Q99541)
inactive: [1] 0.088 | [2] -0.012 | [3] -0.092 | [4] 0 | [5] 0.008 | [6] -0.031 | [7] -0.153 | [8] 0.038 | [9] -0.003 | [10] -0.018 | [11] 0.012 | [12] 0.063 | [13] -0.008 | [14] 0.008 | [15] -0.032

Quoted at random: two records from the list
PNPLA6 (UniProt Q8IY17)
inactive: [1] 0.061 | [2] 0.035 | [3] -0.133 | [4] 0.018 | [5] 0.093 | [6] -0.168 | [7] -0.075 | [8] -0.002 | [9] -0.03 | [10] -0.023 | [11] 0.022 | [12] -0.077 | [13] 0.037 | [14] 0.085 | [15] 0.098

POLR2E (UniProt P19388)
inactive: [1] -0.026 | [2] -0.001 | [3] -0.024 | [4] 0.009 | [5] -0.002 | [6] -0.003 | [7] 0.003 | [8] -0.003 | [9] 0.017 | [10] 0.021 | [11] 0 | [12] -0.101 | [13] 0.022 | [14] 0.059 | [15] -0.016
